Literature values, collected in patent US12600787B2, “Methods for the treatment of thyroid eye disease” (Horizon Therapeutics Ireland DAC, priority 2019, dated 2026).
For at least one compound, name, drawing or mass did not settle the structure.

Tested on: TED (TAO or GO)
Settings: three cumulative doses of ivGCs (2.25 g, 4.98 g, 7.47 g); even using the highest dose; cited from earlier work

SMILES: C[C@H]1C[C@@H]2[C@H]([C@@H](O)C[C@@]3(C)[C@H]2CC[C@]3(O)C(=O)CO)[C@@]2(C)C=CC(=O)C=C12 [methylprednisolone]
- mean reduction in proptosis: 0.6 mm
